Measurements published in article PMC4999505.
These are yes or no findings as the source states them, for the method shown. In cells and extracts the contact can be indirect. Some results given as binding are weak or reduced against the parent protein; the word gives no strength.

Sequences of proteins named here, by UniProt entry; tags and fusion partners are left off. Residues count along the entry.
UniProt P19438, residues 30-455: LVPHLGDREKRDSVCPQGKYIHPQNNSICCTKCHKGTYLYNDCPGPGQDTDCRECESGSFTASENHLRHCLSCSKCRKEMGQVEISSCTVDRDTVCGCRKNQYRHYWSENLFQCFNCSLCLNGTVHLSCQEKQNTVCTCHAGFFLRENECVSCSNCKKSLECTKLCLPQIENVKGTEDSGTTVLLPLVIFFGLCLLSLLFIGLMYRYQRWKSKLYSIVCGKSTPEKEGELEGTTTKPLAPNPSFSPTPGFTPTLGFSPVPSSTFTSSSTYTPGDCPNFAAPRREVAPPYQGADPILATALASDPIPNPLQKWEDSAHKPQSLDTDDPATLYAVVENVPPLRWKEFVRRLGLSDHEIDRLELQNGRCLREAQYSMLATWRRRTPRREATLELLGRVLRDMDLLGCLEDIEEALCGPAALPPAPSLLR

Target: TNF receptor (TNFR) (human (endogenous in HeLa)) (UniProt P19438)
Experiment: co-IP; parental and OPTN-KO HeLa cells stimulated with 1 μg/ml FLAG-TNF-α for the indicated times, lysed in 1% Triton X-100 buffer; TNFR complex I precipitated with anti-FLAG M2 beads, immunoblotting; also with overexpression of OPTN (Supplementary Fig. 10)

| Binder | binding |
| --- | --- |
| TNFR-associated protein with a death domain (TRADD), endogenous (protein, UniProt Q15628 1-312) MAAGQNGHEEWVGSAYLFVESSLDKVVLSDAYAHPQQKVAVYRALQAALAESGGSPDVLQMLKIHRSDPQLIVQLRFCGRQPCGRFLRAYREGALRAALQRSLAAALAQHSVPLQLELRAGAERLDALLADEERCLSCILAQQPDRLRDEELAELEDALRNLKCGSGARGGDGEVASAPLQPPVPSLSEVKPPPPPPPAQTFLFQGQPVVNRPLSLKDQQTFARSVGLKWRKVGRSLQRGCRALRDPALDSLAYEYEREGLYEQAFQLLRRFVQAEGRRATLQRLVEALEENELTSLAEDLLGLTDPNGGLA | binds |
| endogenous SHARPIN (LUBAC component) (protein, UniProt Q9H0F6 1-387) MAPPAGGAAAAASDLGSAAVLLAVHAAVRPLGAGPDAEAQLRRLQLSADPERPGRFRLELLGAGPGAVNLEWPLESVSYTIRGPTQHELQPPPGGPGTLSLHFLNPQEAQRWAVLVRGATVEGQNGSKSNSPPALGPEACPVSLPSPPEASTLKGPPPEADLPRSPGNLTEREELAGSLARAIAGGDEKGAAQVAAVLAQHRVALSVQLQEACFPPGPIRLQVTLEDAASAASAASSAHVALQVHPHCTVAALQEQVFSELGFPPAVQRWVIGRCLCVPERSLASYGVRQDGDPAFLYLLSAPREAPATGPSPQHPQKMDGELGRLFPPSLGLPPGPQPAASSLPSPLQPSWSCPSCTFINAPDRPGCEMCSTQRPCTWDPLAAAST | binds |
